Source: PMC7847690
No constants are given. Whether binding was seen depends on the method and setting. In cells and extracts the contact can be indirect.

Protein sequences, listed by entry. Tags and fused reporters are not part of them.
UniProt Q04206: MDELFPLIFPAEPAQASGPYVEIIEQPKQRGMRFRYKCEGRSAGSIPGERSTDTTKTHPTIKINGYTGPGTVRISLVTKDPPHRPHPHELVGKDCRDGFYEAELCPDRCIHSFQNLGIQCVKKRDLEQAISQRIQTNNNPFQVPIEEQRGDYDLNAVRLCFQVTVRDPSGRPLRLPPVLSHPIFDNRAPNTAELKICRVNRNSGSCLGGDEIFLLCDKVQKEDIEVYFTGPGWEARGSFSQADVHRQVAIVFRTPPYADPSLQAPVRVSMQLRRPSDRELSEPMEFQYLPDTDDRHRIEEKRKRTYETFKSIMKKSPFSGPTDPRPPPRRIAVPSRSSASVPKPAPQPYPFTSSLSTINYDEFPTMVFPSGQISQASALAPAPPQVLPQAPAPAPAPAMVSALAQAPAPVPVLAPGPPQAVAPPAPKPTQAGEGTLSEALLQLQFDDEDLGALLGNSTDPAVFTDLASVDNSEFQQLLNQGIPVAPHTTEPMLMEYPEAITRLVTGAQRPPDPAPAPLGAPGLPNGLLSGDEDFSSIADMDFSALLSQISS
UniProt P13640: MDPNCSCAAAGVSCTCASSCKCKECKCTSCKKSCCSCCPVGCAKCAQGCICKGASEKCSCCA

Molecular target: NF-κB p65 subunit (UniProt Q04206)
Test: co-IP; not told in the text shown (Figure S5E; no co-IP method for this experiment in the methods)

binding: no binding
Substance: Metallothionein-1G (from UniProt P13640 1-62)
